Some entries share one result that the patent states for a list of compounds.
What was measured:
Assay in all cases: Antagonist activity on NMDA receptors (current blockade and recovery)
NMDA-NR1/2C receptors = NMDA-NR1/2C receptors (Homo sapiens, UniProt Q05586+Q14957); format: cell-based; details: NR1/NR2C receptors; read-out: IC50 (FIGS. 19A-19C)
[1] = biological target: NMDA-B (NR1/2B) receptors (Homo sapiens, UniProt Q05586+Q13224); details: read-out: IC50 (FIGS. 18A-18C); NR1/NR2B receptors
[2] = biological target: NMDA-D (NR1/2D) receptors (Homo sapiens, UniProt O15399+Q05586); details: read-out: IC50 (FIGS. 20A-20C); NR1/NR2D receptors

By UniProt entry, the sequences of proteins in these tests, tags left out. Residues count along the entry.
UniProt Q14957, 20-1233: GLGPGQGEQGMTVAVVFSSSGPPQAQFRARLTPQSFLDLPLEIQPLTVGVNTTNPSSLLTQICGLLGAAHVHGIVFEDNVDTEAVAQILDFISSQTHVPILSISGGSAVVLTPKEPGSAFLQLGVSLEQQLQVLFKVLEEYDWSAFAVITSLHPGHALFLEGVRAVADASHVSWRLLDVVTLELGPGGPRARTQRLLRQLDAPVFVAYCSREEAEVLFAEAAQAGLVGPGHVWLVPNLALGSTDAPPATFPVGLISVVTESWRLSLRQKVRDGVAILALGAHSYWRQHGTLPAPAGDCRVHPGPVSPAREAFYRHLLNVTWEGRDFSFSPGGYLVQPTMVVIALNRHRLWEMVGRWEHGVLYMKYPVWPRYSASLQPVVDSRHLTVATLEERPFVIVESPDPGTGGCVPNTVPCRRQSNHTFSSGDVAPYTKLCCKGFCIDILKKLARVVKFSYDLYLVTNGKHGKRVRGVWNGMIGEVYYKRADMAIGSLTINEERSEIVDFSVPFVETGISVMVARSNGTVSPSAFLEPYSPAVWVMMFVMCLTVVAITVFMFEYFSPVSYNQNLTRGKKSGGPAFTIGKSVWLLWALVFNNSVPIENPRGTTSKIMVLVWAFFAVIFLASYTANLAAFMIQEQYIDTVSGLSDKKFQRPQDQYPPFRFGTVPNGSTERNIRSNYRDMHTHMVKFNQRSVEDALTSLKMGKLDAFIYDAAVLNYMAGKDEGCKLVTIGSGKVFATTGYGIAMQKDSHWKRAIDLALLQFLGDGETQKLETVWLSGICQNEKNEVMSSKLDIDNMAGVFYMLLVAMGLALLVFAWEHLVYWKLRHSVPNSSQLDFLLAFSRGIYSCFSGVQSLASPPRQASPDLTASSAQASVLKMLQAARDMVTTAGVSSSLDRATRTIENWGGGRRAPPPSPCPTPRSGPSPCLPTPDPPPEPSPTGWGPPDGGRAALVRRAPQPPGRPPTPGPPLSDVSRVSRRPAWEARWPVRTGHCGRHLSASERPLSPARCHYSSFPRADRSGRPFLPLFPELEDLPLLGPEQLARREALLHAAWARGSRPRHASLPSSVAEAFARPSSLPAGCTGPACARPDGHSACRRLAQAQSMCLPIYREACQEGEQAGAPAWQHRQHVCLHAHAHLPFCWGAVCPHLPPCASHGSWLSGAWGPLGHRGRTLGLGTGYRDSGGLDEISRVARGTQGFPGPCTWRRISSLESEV
UniProt Q13224, 27-1484: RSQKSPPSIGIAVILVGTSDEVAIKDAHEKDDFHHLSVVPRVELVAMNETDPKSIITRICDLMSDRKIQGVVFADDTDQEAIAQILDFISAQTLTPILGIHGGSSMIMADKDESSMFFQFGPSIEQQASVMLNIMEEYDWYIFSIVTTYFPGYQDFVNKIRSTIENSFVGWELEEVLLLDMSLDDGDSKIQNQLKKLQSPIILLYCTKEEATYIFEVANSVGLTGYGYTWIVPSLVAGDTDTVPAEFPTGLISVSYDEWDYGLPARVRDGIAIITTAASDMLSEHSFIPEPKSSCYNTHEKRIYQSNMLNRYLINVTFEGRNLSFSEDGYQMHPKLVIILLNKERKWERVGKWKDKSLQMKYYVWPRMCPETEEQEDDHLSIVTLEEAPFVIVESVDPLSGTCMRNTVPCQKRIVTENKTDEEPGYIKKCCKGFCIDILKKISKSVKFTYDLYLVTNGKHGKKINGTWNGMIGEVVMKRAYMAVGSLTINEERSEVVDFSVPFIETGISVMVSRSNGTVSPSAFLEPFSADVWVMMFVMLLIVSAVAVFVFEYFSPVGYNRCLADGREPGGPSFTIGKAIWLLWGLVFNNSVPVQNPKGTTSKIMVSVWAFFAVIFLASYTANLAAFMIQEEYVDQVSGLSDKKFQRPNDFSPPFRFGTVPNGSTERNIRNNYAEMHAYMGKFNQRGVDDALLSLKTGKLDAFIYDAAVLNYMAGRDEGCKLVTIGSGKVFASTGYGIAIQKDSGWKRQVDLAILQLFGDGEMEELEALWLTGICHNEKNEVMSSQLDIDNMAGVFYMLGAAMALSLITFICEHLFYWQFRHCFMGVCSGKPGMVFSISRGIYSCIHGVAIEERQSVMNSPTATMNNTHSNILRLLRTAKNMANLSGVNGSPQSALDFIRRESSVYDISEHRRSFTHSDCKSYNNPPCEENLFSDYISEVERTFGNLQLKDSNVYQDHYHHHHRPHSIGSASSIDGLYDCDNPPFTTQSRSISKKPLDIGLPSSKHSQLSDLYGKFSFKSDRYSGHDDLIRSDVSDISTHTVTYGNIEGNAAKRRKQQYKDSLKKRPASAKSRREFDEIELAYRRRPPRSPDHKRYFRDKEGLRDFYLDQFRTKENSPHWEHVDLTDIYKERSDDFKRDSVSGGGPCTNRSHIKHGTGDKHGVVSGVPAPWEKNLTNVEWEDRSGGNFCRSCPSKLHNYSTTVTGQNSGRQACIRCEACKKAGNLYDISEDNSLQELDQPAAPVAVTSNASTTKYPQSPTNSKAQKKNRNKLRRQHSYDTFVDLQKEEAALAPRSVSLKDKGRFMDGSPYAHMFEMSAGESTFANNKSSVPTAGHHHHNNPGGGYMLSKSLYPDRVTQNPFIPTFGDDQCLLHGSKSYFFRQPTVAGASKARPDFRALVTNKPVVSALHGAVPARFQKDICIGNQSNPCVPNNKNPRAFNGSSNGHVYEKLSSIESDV
UniProt O15399, 28-1336: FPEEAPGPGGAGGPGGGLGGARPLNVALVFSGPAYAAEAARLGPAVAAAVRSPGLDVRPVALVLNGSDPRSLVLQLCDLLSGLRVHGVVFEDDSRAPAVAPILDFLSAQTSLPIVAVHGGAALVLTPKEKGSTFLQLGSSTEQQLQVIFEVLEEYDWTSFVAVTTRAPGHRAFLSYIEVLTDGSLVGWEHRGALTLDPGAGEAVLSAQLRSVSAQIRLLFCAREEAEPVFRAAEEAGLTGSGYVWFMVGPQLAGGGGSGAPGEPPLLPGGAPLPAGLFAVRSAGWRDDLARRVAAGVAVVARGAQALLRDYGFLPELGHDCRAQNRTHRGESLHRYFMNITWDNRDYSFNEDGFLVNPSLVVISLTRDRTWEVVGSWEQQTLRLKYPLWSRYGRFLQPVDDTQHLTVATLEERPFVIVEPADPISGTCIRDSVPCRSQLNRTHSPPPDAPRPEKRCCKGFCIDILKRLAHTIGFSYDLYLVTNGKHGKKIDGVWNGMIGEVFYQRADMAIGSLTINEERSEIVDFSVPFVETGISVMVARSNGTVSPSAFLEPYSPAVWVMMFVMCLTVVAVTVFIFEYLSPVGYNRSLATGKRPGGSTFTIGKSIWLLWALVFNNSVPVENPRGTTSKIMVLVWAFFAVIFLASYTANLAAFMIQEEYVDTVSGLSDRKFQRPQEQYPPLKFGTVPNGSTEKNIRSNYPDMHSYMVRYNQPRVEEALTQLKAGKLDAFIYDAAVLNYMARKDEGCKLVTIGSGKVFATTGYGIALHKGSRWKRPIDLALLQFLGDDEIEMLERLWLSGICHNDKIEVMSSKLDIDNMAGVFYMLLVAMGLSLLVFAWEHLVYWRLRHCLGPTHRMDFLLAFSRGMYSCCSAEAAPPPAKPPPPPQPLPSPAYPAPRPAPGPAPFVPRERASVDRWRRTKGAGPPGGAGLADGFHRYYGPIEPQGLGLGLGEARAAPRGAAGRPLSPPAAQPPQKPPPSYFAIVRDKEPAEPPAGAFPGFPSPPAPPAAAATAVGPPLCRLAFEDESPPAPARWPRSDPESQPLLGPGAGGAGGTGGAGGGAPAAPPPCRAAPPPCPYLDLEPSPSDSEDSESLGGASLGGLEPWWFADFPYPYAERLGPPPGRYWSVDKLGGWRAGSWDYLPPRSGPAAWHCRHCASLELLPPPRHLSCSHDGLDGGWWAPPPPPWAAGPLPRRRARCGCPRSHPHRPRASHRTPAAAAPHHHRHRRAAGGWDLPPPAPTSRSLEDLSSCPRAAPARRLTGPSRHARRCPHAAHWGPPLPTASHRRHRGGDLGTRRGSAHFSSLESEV

Measured: IC50

CNC1(c2ccccc2Cl)CCCC/C1=N\O (stereo not drawn) [Oxime (Disalt), 2-(2-Chloro-phenyl)-2-methylamino-cyclohexanone oxime]
~1000 nM: all assays above

CNC1(c2ccccc2Cl)CCCC/C1=N\O (stereo not drawn) [Oxime (Monosalt), 2-(2-Chloro-phenyl)-2-methylamino-cyclohexanone oxime]
~1000 nM: all assays above

— patent publication US9073819B2, “Compositions, methods of use, and methods of treatment” (UNIVERSITY OF SOUTH FLORIDA, priority 2011, dated 2015)
